The RNAGym collection of RNA variant scans (doi:10.1126/science.aae0568)
Variants at the background level are over-represented here.

B1: tRNA (parent)
chain: GUUCCGUUGGCGUAAUGGUAACGCGUCUCCCUCCUAAGGAGAAGACUGCGGGUUCGAGUCCCGUACGGAACG

Variants of: B1
Test: yeast fitness relative to wild type (ratio to wild type); higher = fitter; tRNA-Arg(CCU), competitive growth, 37 C, YPD
In short: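 Gene amplicons from the start population and from each of six end populations were read by 100-nucleotide paired-end sequencing. Those end populations came from pooled Saccharomyces cerevisiae strains carrying tRNA-Arg(CCU) gene variants at the native locus, competed in YPD at 37°C for 24 hours. Fitness relative to wild type was worked out from changes in genotype frequencies. Genotypes needed ≥ 100 starting reads, and estimates < 0.5 were set to 0.5.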
U13C A37C A70U showed a yeast fitness of at most 0.5. In the case of C31G U32A C46G C55A, the yeast fitness is reported as at most 0.5. U2G G9C A20G A42C C46G C49U G67A A69U showed a yeast fitness of at most 0.5. Variant C22A C24U G44C has a yeast fitness of at most 0.5. With C11A G51A A69U A70G the yeast fitness was at most 0.5. In the case of C11G U13G A21G, the yeast fitness is reported as 0.785. With U8C A45U U59C the yeast fitness was 0.57. Work on G58C G63A yielded a yeast fitness of 0.873. Variant U2C C4U C22U C31U C60G A70G has a yeast fitness of at most 0.5. U8G U32A C33G C61U C62U gave a yeast fitness of at most 0.5. Variant U2A A15U A37C has a yeast fitness of at most 0.5. U19A C29G G48A C61A gave a yeast fitness of 0.683. Work on G10C C11A C49G C55A yielded a yeast fitness of at most 0.5. Work on A20C C30G C33G yielded a yeast fitness of at most 0.5. Work on C11G A15C A37U yielded a yeast fitness of at most 0.5. Work on U16A G17A C66U yielded a yeast fitness of at most 0.5. Work on U35G G63A yielded a yeast fitness of 0.7. In the case of C22U G23C U26C C30A G52A, the yeast fitness is reported as at most 0.5. For U26C C29U C60A, the yeast fitness was at most 0.5. In the case of C5G A70U, the yeast fitness is reported as 0.812. For U3G G39A U53A, the yeast fitness was at most 0.5. U2G C5A U19A C30G A43C G50A C55U showed a yeast fitness of at most 0.5. For C5A G23C G50C, the yeast fitness was at most 0.5. In the case of C4G C11U U35C A36G G63A, the yeast fitness is reported as at most 0.5. In the case of C4U C30A G56A U59A, the yeast fitness is reported as at most 0.5. With C31G U59C C62U G68U the yeast fitness was at most 0.5. Work on G23C G44C C46U yielded a yeast fitness of at most 0.5. C11G C24G C60U gave a yeast fitness of at most 0.5. For G9A C24U A40U A57C, the yeast fitness was at most 0.5. With C30A C49U A57G the yeast fitness was at most 0.5. U2C C4G C22U C30A A65U gave a yeast fitness of at most 0.5. With A20U A36C A43U U47C A65G the yeast fitness was at most 0.5. In the case of C22G C30A G41C A42U, the yeast fitness is reported as at most 0.5. A15C C46G G63C C66A showed a yeast fitness of at most 0.5. Variant C46G G51A G56C A57C has a yeast fitness of at most 0.5. For C4A G41A C55U, the yeast fitness was at most 0.5. Variant A20U U28C U54A A69U has a yeast fitness of at most 0.5. Work on C4A U13A C55U A69C yielded a yeast fitness of at most 0.5. With U2G C4A C22U U28G A42U C61U the yeast fitness was at most 0.5. With C27G A57U C60G G68C the yeast fitness was at most 0.5. G38A A40U G50C showed a yeast fitness of at most 0.5. C27U C31G U64C A69C showed a yeast fitness of at most 0.5. Variant C30G A37U U47C C60A G63A has a yeast fitness of at most 0.5. In the case of C5A C31G A37G C55A, the yeast fitness is reported as at most 0.5. In the case of G52C U54A C61U, the yeast fitness is reported as at most 0.5. C29U A36U U54C C55A C62G A69G gave a yeast fitness of at most 0.5. With C5U C29A C31A U54A the yeast fitness was at most 0.5. C31U U35C A37C U47G G63A A70C showed a yeast fitness of at most 0.5. C11U A37U C55U C66U showed a yeast fitness of at most 0.5. With C4G U8G G9A C11U C49A the yeast fitness was at most 0.5. G6C U7C C24U C29G G50C C66U gave a yeast fitness of at most 0.5. In the case of A14C C24G U47A C66U, the yeast fitness is reported as at most 0.5. In the case of U3C A14G, the yeast fitness is reported as 0.917. A20G U32G A43C A45U showed a yeast fitness of at most 0.5. A57U C66U G68C A69U showed a yeast fitness of at most 0.5. Work on U3C C29U C33A G38A yielded a yeast fitness of at most 0.5. A15U C31A C49G A70C gave a yeast fitness of at most 0.5. U8A G38C C61U showed a yeast fitness of at most 0.5. G6A C27G showed a yeast fitness of 0.758. With C46A C49A G63A the yeast fitness was at most 0.5. With C11U C31A A45C the yeast fitness was at most 0.5. For G17A C24G C27G G52A G67A, the yeast fitness was at most 0.5. Work on C4G U19A A43C yielded a yeast fitness of at most 0.5. In the case of C4G G17A C34A A43G G63A, the yeast fitness is reported as at most 0.5. In the case of G10C G12C G39A A69U, the yeast fitness is reported as at most 0.5. Work on U26G A57U C66U yielded a yeast fitness of at most 0.5. Work on C5G U35C G44A A70C yielded a yeast fitness of at most 0.5. G17C C22G gave a yeast fitness of 0.619. G17C C29G A37C U64C gave a yeast fitness of 0.771. For G6A G39C A43G G44C A45U C49G G67C, the yeast fitness was at most 0.5. C4A G68C gave a yeast fitness of 0.808. U7A C27U C29A A36U A40C G52C A69C gave a yeast fitness of at most 0.5. Variant U3C C4U A40G A43U C55G has a yeast fitness of at most 0.5. A21C C22A C34G A37C C62U gave a yeast fitness of at most 0.5. Work on G25C C29U A45C G58A yielded a yeast fitness of at most 0.5. C34A A36C C49U showed a yeast fitness of at most 0.5. For U35A A43G C66U, the yeast fitness was at most 0.5. In the case of C4G A40U A42C, the yeast fitness is reported as at most 0.5. In the case of A14G C55A A57U G58C, the yeast fitness is reported as at most 0.5. Variant C4U C24A U47G G58A has a yeast fitness of at most 0.5. With A45G G67A the yeast fitness was 0.961. In the case of U2A C5G U35C, the yeast fitness is reported as at most 0.5. Work on G9A U13C C24G C34G yielded a yeast fitness of at most 0.5. With C4A U8C U13C A20G C31G G44C U54C A69U the yeast fitness was at most 0.5.
